Experimental findings from publication PMC7862700 are described below.

Amino acid sequences for entries named in this document (tags omitted). A change or cut given only in a name is not applied to a line headed by its entry.
UniProt Q00613: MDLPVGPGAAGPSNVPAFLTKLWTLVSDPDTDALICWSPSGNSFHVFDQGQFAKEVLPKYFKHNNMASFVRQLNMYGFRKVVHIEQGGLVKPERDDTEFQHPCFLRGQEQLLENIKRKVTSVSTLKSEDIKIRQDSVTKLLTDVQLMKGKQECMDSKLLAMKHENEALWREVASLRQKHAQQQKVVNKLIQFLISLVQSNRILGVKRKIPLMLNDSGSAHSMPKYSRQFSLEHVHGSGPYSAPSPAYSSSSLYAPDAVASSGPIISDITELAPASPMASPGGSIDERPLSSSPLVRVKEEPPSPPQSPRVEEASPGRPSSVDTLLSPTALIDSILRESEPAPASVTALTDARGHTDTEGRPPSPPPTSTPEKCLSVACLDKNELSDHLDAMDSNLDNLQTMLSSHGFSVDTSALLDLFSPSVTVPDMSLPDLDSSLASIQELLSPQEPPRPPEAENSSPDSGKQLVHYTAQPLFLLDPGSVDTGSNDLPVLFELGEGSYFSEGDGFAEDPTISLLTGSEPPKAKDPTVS

The list shows a part of the results, in another mix than the full data. For some assays here: At the low end of the ranking the order means little. The list shows a part of the results. For some assays here: The source does not settle which construct or isoform was used.

The target of the first assay is HSF1 (UniProt Q00613). As to the kind of experiment: DAPPL (digital affinity profiling via proximity ligation, sequencing). As to conditions: 10 mM Tris-HCl pH 7.5, 50 mM NaCl, 1 mM DTT, 4% glycerol, room temperature, 30 min; GST-TFs on glutathione beads, 16-mer random dsDNA library, 0.1% …; high values mean tight binding; double strand, one strand shown; scale: fold enrichment (6-mer frequency, TF over GST control).
Turning to CTTTGC, the binding signal turned out to be 1.25.
Same read-out and setting: the figure for GTAATA is 1.24; for CGCAAC it is 0.838.
The sequence GCCCGC came in with a binding signal of 0.887.
The same measure, in the same setting: the figure for TTACAT is 1.45; for GATAAT it is 1.98.
As for CCTGTG, the binding signal amounted to 0.849.
In the case of TGAAAG, the binding signal turned out to be 1.08.
For the sequence GCTAAC, the binding signal worked out at 0.913.
As for GCAGCC, the binding signal amounted to 0.725.
Still for that read-out and setting: the same measure for AAGGCT: 1.1; for TCTTCC: 1.69.
Still for that read-out and setting: the same measure for GTTTGA: 1.03; for TGTAAC: 0.994.
On the same count and under the same terms, the same measure for GCCACA: 0.729.
As for CCTAGG, the binding signal stood at 0.931.
Still for that read-out and setting: the figure for CGGAAG is 0.642; for CCACAT it is 0.976; for CATCAA it is 0.871.
For CAAGCT, the binding signal is 0.933.
For the sequence GCATCT, the binding signal was 0.954.
Same read-out and setting: the figure for ATTCCT is 1.57.
For the sequence CCGGGT, the binding signal worked out at 0.568.
With CGCCGC, the binding signal came out at 0.888.
For AAAGCT, the binding signal was determined as 1.32.
The same measure, in the same setting: the figure for GTCATT is 0.889; for TCTGAG it is 0.961; for GTGACC it is 0.896.
ATTACA: the binding signal was 1.4.
As for AGCAGA, the binding signal was found to be 0.994.
TGCGAC had a binding signal of 0.975.
Sequence CGCGCG showed a binding signal of 0.957.
Regarding AAAACC, the binding signal amounted to 1.09.
Sequence GTATGT displayed a binding signal of 0.812.
For CATACC, the binding signal turned out to be 0.837.
For CCCCGC, the binding signal came out at 0.912.
The same measure, in the same setting: the same measure for GCTCGA: 1.74.
Sequence CACCCC registered a binding signal of 0.914.
Regarding ATCTCA, the binding signal stood at 1.19.
The sequence ATGGTC gave a binding signal of 1.01.

A further assay deals with T1, ELF2 (UniProt Q15723).
T1 sequence: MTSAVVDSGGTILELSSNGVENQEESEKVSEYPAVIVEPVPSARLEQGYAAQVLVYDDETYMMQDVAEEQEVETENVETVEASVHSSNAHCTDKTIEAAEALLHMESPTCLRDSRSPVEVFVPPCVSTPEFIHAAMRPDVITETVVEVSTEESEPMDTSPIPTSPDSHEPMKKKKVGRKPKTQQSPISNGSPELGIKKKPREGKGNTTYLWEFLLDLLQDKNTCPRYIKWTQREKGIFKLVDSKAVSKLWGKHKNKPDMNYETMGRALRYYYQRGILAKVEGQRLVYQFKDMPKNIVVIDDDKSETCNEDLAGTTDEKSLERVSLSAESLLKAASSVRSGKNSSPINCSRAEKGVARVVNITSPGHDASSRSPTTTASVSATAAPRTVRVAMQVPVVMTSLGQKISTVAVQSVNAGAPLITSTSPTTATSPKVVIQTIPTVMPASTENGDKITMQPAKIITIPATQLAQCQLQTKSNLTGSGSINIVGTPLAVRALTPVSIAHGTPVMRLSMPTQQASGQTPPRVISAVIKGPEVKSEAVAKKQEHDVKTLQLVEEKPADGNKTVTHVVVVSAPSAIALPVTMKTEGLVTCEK
The assay is described as above. The conditions noted are these: 10 mM Tris-HCl pH 7.5, 50 mM NaCl, 1 mM DTT, 4% glycerol, room temperature, 30 min; GST-TFs on glutathione beads, 16-mer random dsDNA library, 0.1% …; high values mean tight binding; double strand, one strand shown; scale: fold enrichment (6-mer frequency, TF over GST control).
Take CTTTGC: the binding signal was 1.24.
Turning to GTAATA, the binding signal was determined as 1.22.
Same read-out and setting: the figure for CGCAAC is 1.03; for GCCCGC it is 1.01; for TTACAT it is 1.35.
Take GATAAT: the binding signal stood at 1.05.
For CCTGTG, the binding signal was found to be 1.06.
In turn, TGAAAG showed a binding signal of 0.961.
Sequence GCTAAC gave a binding signal of 0.998.
Consider GCAGCC, for which the binding signal amounted to 0.986.
The sequence AAGGCT gave a binding signal of 0.999.
On to TCTTCC, for which the binding signal stood at 4.11.
On to GTTTGA, for which the binding signal worked out at 1.15.
Same read-out and setting: the same measure for TGTAAC: 1.22; for GCCACA: 0.911.
Consider CCTAGG, for which the binding signal amounted to 0.922.
On to CGGAAG, for which the binding signal amounted to 4.9.
CCACAT had a binding signal of 1.2.
Take CATCAA: the binding signal was found to be 0.928.
The sequence CAAGCT yielded a binding signal of 0.955.
GCATCT yielded a binding signal of 0.979.
Sequence ATTCCT had a binding signal of 1.48.
Sequence CCGGGT yielded a binding signal of 1.57.
With CGCCGC, the binding signal turned out to be 1.14.
Turning to AAAGCT, the binding signal was 1.05.
As to GTCATT, the binding signal came to 0.925.
The sequence TCTGAG came in with a binding signal of 0.867.
As for GTGACC, the binding signal came to 1.22.
Still for that read-out and setting: the same measure for ATTACA: 1.13; for AGCAGA: 0.904.
Sequence TGCGAC came in with a binding signal of 1.19.
With CGCGCG, the binding signal is 1.04.
Regarding AAAACC, the binding signal worked out at 1.2.
GTATGT returned a binding signal of 0.941.
CATACC returned a binding signal of 1.05.
For CCCCGC, the binding signal was 1.08.
GCTCGA showed a binding signal of 1.08.
Still for that read-out and setting: the same measure for CACCCC: 1.24; for ATCTCA: 1.07.
On the same count and under the same terms, the figure for ATGGTC is 1.4.
